# Measurements reported in PubChem BioAssay.
# Inconclusive means that the source gave no clear call. Such entries were picked first, then a sample of the others. For some of these results: A potency beside an inconclusive call is a rough fit, not a confirmed value. Calls of active or inactive are those of the source. Unless noted, the limit is not given here; nearly all actives have AC50 up to about 30 µM.
# Legend:
# [1] = growth inhibition of DIPG glioma cells, dose response, cell-based, JHH-DIPG-1, MIPE4.0, CellTiter-Glo, qHTS (AID 1347062; cut-off not given, nearly all actives have AC50 up to about 27 µM;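 as to AC50: cells exposed to compound for two days before readout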); details: JHH-DIPG-1 viability, CellTiter-Glo ATP luminescence
# [2] = growth inhibition of DIPG glioma cells, dose response, cell-based, SU-DIPG-IV, MIPE4.0, CellTiter-Glo, qHTS (AID 1347063); details: SU-DIPG-IV viability, CellTiter-Glo ATP luminescence;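 also: compound exposure lasted 48 hours before the viability readout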
# [3] = viability loss in pontine glioma line – cell-based, SU-DIPG-XXV, MIPE5.0, CellTiter-Glo, qHTS, dose response (AID 1347065; cut-off not given, nearly all actives have AC50 up to about 26 µM;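 also: cells exposed to compound for 48 hours before ATP readout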); details: CellTiter-Glo ATP luminescence
# [4] = JHH-DIPG-1 glioma cell viability, MIPE5.0 library, CellTiter-Glo luminescence, qHTS (AID 1347067; cut-off not given, nearly all actives have AC50 up to about 26 µM;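 also: cells exposed to compound for 48 hours before readout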); details: JHH-DIPG-1 glioma viability, CellTiter-Glo ATP luminescence
# [5] = growth inhibition of DIPG glioma cells, dose response, cell-based, SU-DIPG-XIII, MIPE5.0, CellTiter-Glo, qHTS (AID 1347064; cut-off not given, nearly all actives have AC50 up to about 23 µM;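 as to AC50: cells exposed to compound for 48 hours before the viability read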); details: SU-DIPG-XIII viability, CellTiter-Glo ATP luminescence
# [6] = SU-DIPG-VI glioma cell viability, MIPE4.0 library, CellTiter-Glo luminescence, qHTS (AID 1347066); details: CellTiter-Glo ATP luminescence;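 also: cells exposed to compound for 48 hours before readout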
# [7] = SU-DIPG-XXV glioma cell viability, MIPE5.0 library, qHTS (AID 1347068; cut-off not given, nearly all actives have IC50 up to about 30 µM;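 also: cells exposed to compound for 48 hours before viability readout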)
# [8] = inhibitors of polyQ aggregate elongation, biochemical, solid-phase synthetic aggregates, QA3 (AID 1585; call rule not given here); details: biotin-polyQ incorporation, at 100 µM, active compounds read high
# [9] = polyglutamine aggregation reduction, turbidity readout, qthio, single concentration 25 µM screen (AID 1588; call rule not given here); details: at 25 µM, active compounds read low
# [10] = enhancers of SMN2 over SMN1 splicing, cell-based, SMN2/SMN1 luciferase reporters (AID 1598; call rule not given here); details: SMN2 vs SMN1 luciferase splicing reporter cells; at 10 µM; active compounds read high
# [11] = growth inhibition of DIPG glioma cells, dose response, cell-based, SU-DIPG-XIII, MIPE4.0, CellTiter-Glo, qHTS (AID 1347061; cut-off not given, nearly all actives have AC50 up to about 37 µM;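 also: cells exposed to compound for 48 hours before readout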); details: SU-DIPG-XIII viability, CellTiter-Glo ATP luminescence
smiles,measurement,setting,value
CCN(CC)CCCC(C)Nc1nc(C)cc(Nc2ccc3nc(C)cc(N)c3c2)n1 (stereo not given),AC50,[1],inconclusive: 16600 nM [cytotoxic]
same,outcome,[2],inactive
same,AC50,[3],inconclusive: 1.48 nM [cytotoxic]
same,outcome,[4],inactive
O=P(O)(O)C(O)(Cc1cccnc1)P(=O)(O)O,outcome,[1],inactive
same,AC50,[2],inconclusive: 3.72 nM
same,AC50,[3],inconclusive: 1.05 nM [cytotoxic]
Nc1ccn([C@@H]2O[C@H](CO)[C@@H](O)C2O)c(=O)n1 (stereo not given in full),outcome,[1],inactive
same,AC50,[2],inconclusive: 5900 nM [cytotoxic]
same,outcome,[5],inactive
same,outcome,[3],inactive
same,AC50,[6],inconclusive: 9350 nM
Clc1ccccc1CN1CCc2sccc2C1,outcome,[1],inactive
same,AC50,[2],inconclusive: 2350 nM [cytotoxic]
same,outcome,[5],inactive
same,outcome,[3],inactive
same,outcome,[6],inactive
same,outcome,[4],inactive
O=C(O)C(=O)Nc1cccc(-c2nn[nH]n2)c1,outcome,[1],inactive
same,outcome,[2],inactive
same,AC50,[5],inconclusive: 1.05 nM
CC(=O)SC[C@@H](C)C(=O)N1CCC[C@H]1C(=O)N[C@@H](Cc1ccccc1)C(=O)O,outcome,[1],inactive
same,outcome,[2],inactive
same,AC50,[5],inconclusive: 5900 nM [cytotoxic]
same,AC50,[3],inconclusive: 11800 nM [cytotoxic]
same,IC50,[7],inconclusive: 2.09 nM
CC(C)(C)c1nc2c3cc[nH]c(=O)c3c3cc(F)ccc3c2[nH]1,AC50,[1],inconclusive: 1320 nM [cytotoxic]
same,AC50,[2],inconclusive: 2960 nM [cytotoxic]
same,AC50,[5],inconclusive: 11800 nM [cytotoxic]
same,AC50,[6],inconclusive: 2640 nM [cytotoxic]
same,AC50,[4],inconclusive: 1660 nM [cytotoxic]
same,IC50,[7],inconclusive: 468 nM [cytotoxic]
CCOc1ccccc1OCCNC(C)Cc1ccc(OC)c(S(N)(=O)=O)c1 (stereo not given),AC50,[1],inconclusive: 1.48 nM
same,outcome,[2],inactive
COc1cc2c(c(OC)c1OC)-c1ccc(OC)c(=O)cc1[C@@H](NC(C)=O)CC2,inhibition,[8],inconclusive: 8.99%
same,aggregation (% of control),[9],inconclusive: 98.3%
same,SMN2/SMN1 luciferase ratio,[10],inconclusive: 0.99
same,AC50,[11],inconclusive: 29.6 nM [cytotoxic]
same,AC50,[6],inconclusive: 1.87 nM [cytotoxic]
same,IC50,[7],active: 46.8 nM

# Some of the entries so far, with bars between the fields:
smiles | measurement | setting | value
CC(C)(C)c1nc2c3cc[nH]c(=O)c3c3cc(F)ccc3c2[nH]1 | AC50 | [1] | inconclusive: 1320 nM [cytotoxic]
same | AC50 | [2] | inconclusive: 2960 nM [cytotoxic]
same | AC50 | [5] | inconclusive: 11800 nM [cytotoxic]
